The target in this test is full-length human KIF5A, C-terminal mScarlet-StrepII (human) (UniProt Q12840). As to the kind of experiment: SEC-MALS.

Amino acid sequences for entries named in this document (tags omitted).
UniProt Q12840: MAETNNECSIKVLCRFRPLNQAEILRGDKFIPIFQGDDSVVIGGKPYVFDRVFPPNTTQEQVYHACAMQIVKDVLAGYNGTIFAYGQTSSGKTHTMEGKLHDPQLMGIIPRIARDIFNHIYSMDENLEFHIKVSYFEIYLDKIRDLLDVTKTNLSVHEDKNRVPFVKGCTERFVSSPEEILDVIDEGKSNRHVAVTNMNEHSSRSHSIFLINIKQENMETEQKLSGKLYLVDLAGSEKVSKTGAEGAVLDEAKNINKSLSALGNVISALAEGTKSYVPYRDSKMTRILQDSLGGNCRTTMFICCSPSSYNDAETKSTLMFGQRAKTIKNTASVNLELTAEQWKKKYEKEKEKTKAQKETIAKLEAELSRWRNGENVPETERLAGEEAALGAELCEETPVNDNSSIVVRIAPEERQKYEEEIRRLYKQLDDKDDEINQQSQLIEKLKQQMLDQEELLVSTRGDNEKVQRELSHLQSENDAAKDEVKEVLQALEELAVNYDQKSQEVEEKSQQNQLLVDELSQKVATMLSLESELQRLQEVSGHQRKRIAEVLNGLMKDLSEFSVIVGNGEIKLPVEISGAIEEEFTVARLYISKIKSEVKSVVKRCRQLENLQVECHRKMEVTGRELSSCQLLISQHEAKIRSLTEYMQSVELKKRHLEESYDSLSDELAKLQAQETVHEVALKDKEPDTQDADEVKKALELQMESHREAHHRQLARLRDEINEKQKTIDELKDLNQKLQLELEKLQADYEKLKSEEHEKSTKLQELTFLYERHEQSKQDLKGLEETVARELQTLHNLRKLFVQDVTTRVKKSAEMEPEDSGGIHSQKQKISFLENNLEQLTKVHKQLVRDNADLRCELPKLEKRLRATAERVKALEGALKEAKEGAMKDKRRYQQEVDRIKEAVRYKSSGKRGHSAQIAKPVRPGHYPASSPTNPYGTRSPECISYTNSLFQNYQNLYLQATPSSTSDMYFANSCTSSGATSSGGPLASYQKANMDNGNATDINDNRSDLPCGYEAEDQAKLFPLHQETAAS
UniProt Q07866: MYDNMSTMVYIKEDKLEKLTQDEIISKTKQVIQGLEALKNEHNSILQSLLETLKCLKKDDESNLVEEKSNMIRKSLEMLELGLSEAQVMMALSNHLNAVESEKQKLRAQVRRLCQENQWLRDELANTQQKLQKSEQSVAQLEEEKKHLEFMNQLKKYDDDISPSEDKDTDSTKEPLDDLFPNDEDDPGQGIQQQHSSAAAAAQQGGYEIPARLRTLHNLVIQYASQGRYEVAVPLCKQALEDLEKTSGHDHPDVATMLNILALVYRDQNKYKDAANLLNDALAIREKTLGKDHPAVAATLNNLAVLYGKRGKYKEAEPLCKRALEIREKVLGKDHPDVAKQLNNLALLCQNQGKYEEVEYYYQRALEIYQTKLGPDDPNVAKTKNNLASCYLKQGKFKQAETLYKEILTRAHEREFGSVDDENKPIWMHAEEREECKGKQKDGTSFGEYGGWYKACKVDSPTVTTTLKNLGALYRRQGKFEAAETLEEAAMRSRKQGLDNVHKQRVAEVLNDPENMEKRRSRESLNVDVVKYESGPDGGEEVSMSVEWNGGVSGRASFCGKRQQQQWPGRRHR

No constants are given. Whether binding was seen depends on the method and setting. Some entries that bind do so weakly or less than the wild type.

Turning to “human KLC1 with N-terminal 6xHis-FLAG (co-expressed with KIF5) (from UniProt Q07866 1-573)”, the binding entry was “binds”.
